# Reference: patent publication US11912691B2, “Tocotrienols derivates, methods and uses thereof” (GLOBAL SCIENTIFIC, priority 2020, dated 2024)
# Some entries share one result that the patent states for a list of compounds. At least one structure is not confirmed: it was looked up by name or label, or the drawing left a doubt.
# Test: Chemical stability in a cosmetic formulation, accelerated aging test (45° C., 3 months)
# Description: In an embodiment, the chemical stability of the modified molecules was evaluated in accelerated degradation tests. For this purpose, the test molecules were formulated in a cosmetic relevant formulation and its degradations were assessed for a period of 3 months.
# In an embodiment, the cosmetic formulation may comprise water, jojoba seed oil, butylene glycol, squalane, sodium hyaluronate, cetearyl alcohol and a carbomer.
# In an embodiment, test molecules were added to the cosmetic formulation at 0.1% m/m level, thoroughly homogenized to ensure uniform dispersion and stored in closed glass bottles in an oven at 45° C. for 3 months. In order to evaluate homogeneity and stability, 3 samples were collected from random positions immediately after preparation and at each time point evaluated. The quantification of the test molecules was performed by HPLC.
# In an embodiment, the preparation of the mixtures for evaluation of the stability was performed according to the following experimental protocol. The mass of compound was weighed and dissolved in 2-(2-ethoxyethoxy)ethanol (also weighed) and added to a known mass of moisturizer product. The mixture was homogenized, and 3 samples were collected to confirm homogenous distribution and initial concentration of modified molecules. The mixtures were then stored in an oven at 45° C. for 3 months (Table IV).
# In an embodiment, the stability of the test molecules in the cosmetic formulation was determined. The test mixtures were sampled in triplicate from random zones. The samples were prepared for analysis by solubilizing them in acetonitrile and the quantification of the modified and non-modified tocopherol and tocotrienol molecules was performed by HPLC. The % of the initial compounds is described in Table IV.
row,SMILES,Decrease of quantity after 3 months of accelerated aging [%]
1,"Cc1c(C)c2c(c(C)c1O)CC[C@@](C)(CCC[C@H](C)CCC[C@H](C)CCCC(C)C)O2 [α-tocopherol, reference compound]",≥ 50
2,"CC(C)=CCC/C(C)=C/CC/C(C)=C/CC[C@]1(C)CCc2c(C)c(O)c(C)c(C)c2O1 [α-tocotrienol, reference compound]",≥ 50
3,"CC(C)=CCC/C(C)=C/CC/C(C)=C/CC[C@]1(C)CCc2cc(O)cc(C)c2O1 [δ-tocotrienol, reference compound]",≥ 50
